PubChem BioAssay AID2685 (National Center for Advancing Translational Sciences (NCATS), 2010)
The list shows a part of the results. These are further read-outs of the screen, such as a control signal, another cell line or another target. No call is given for them. Compounds called inactive in the main read-out are mostly missing here. Potencies come from curve fits of mixed quality, noted in brackets.

Assay: qHTS Assay for Lipid Storage Modulators in Drosophila S3 Cells;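 as to cell number change: cells counted by Cell Tracker Red CMTPX staining in the red channel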
Conditions: BODIPY lipid droplet fluorescence, 18-24 h; for cell number change: measured here: cell count max response, cells fed with added oleic acid
Procedure, shortened: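 Drosophila S3 cells loaded with oleic acid (400 uM, as added) and compounds at several concentrations; lipid droplets imaged by 488-nm laser-scanning cytometry, 500–530 nm intensity and object ratio to cell channel. Percent activity normalized to 20 uM Triacsin C.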

[1] = measured here: cell number channel AC50, cells fed with added oleic acid
[2] = measured here: lipid fluorescence (Fed channel) AC50, cells fed with added oleic acid

Structure (SMILES) | cell number change [%] | AC50 [1] | AC50 [2]
CNC(=S)NNC(=O)c1cc(-c2cccnc2)nc2ccccc12 | 30.8 | 20.6 µM [rising, single point] | –
Cc1ccnn1CCSCC(=O)O | 5.95 | – | –
COc1cc(COC(=O)c2cnc(C)cn2)c(OC)cc1Br | – | – | 0.103 µM [falling, full curve]
CC(C)NC(=O)c1ccccc1NC(=O)Cc1ccc(Br)cc1 | 16.8 | 0.82 µM [rising, full curve] | –
O=C(CCn1cnc2ccccc2c1=O)Nc1nc2c(s1)CCCC2 | -38.7 | 29.1 µM [falling, single point] | 32.6 µM [falling, single point]
O=S(=O)(c1ccc2nc(SCc3ccc(Cl)cc3)[nH]c2c1)N1CCOCC1 | -5.42 | – | –
COc1ccc(OC)c(C(c2nnnn2C2CCCC2)N2CCc3ccccc3C2)c1 (centres undefined) | -7.76 | – | 5.17 µM [rising, single point]
COc1ccc(S(=O)(=O)N2CCCCC2)cc1Br | 7.42 | – | –
Cc1cccc2sc(NC(=O)CN(C)S(=O)(=O)c3cccs3)nc12 | -17.5 | – | 29.1 µM [rising, single point]
CC(OC(=O)CNC(=O)c1sc2ccccc2c1Cl)c1ccccc1 (centres undefined) | 36.5 | 25.9 µM [rising, partial curve] | 11.6 µM [falling, partial curve]
O=C(NCC1CCCO1)c1ccc2c(=O)n(CCc3ccccc3)c(=O)[nH]c2c1 (centres undefined) | 18.4 | – | 9.2 µM [rising, partial curve, poor fit]
O=C(NNC1=NS(=O)(=O)c2ccccc21)c1ccc([N+](=O)[O-])cc1 | 5.42 | – | 0.116 µM [rising, single point]
CCc1ccc(C(C)NC(=S)NCc2ccc(F)cc2)cc1 (centres undefined) | 47 | – | 0.184 µM [rising, full curve, poor fit]
CCCCSc1nc(N)c(NC(=O)c2ccco2)c(=O)[nH]1 | -70.6 | 32.6 µM [falling, single point] | –
CCOC(=O)c1ccc(N2C(=O)CC(SCC(=O)Nc3ccc(S(N)(=O)=O)cc3)C2=O)cc1 (centres undefined) | -18.5 | 0.146 µM [falling, full curve, poor fit] | 3.66 µM [falling, single point]
CSCc1c(C(=O)NCCc2ccccn2)oc2ccccc12 | 2.38 | – | 0.82 µM [rising, full curve, poor fit]
COC(=O)c1ccsc1NC(=O)CS(=O)(=O)c1ccccc1 | – | 1.03 µM [rising, partial curve] | –
Cc1ccc(NC(=O)COC(=O)Cn2cnc3ccccc32)c([N+](=O)[O-])c1 | 57.8 | 29.1 µM [rising, single point] | –
CCOC(=O)c1c(NC(=O)c2cc(-c3cccc(O)c3)on2)sc(C(C)=O)c1C | – | – | 0.206 µM [falling, full curve, poor fit]

Whole records, looked up by structure:
O=C(NNC1=NS(=O)(=O)c2ccccc21)c1ccc([N+](=O)[O-])cc1 is listed with cell number change [%]: 5.42; AC50 [2]: 0.116 µM [rising, single point]
CCOC(=O)c1c(NC(=O)c2cc(-c3cccc(O)c3)on2)sc(C(C)=O)c1C is listed with AC50 [2]: 0.206 µM [falling, full curve, poor fit]

The results go on.

Structure (SMILES) | cell number change [%] | AC50 [1] | AC50 [2]
O=C(NCCCn1cccn1)C1CCC(=O)N(Cc2cccc(C(F)(F)F)c2)C1 (centres undefined) | 7.03 | – | –
COc1ccccc1NC(=O)c1ccc2nc(C)c(C)nc2c1 | -19.1 | – | 0.651 µM [falling, full curve, poor fit]
Cc1ccc(Cn2c(SCC(=O)NCc3ccco3)nc3ccsc3c2=O)cc1 | -48.6 | 23.1 µM [falling, single point] | 6.51 µM [rising, partial curve, poor fit]
CC(=O)c1c(N2CCN(Cc3ccccc3)CC2)nc(=S)n(Cc2ccccc2)c1C | -56.8 | 18.4 µM [falling, single point] | 29.1 µM [falling, single point]
CCCCn1c(SCC(=O)NCc2ccc3c(c2)OCO3)nnc1C(CC)N(C)C (centres undefined) | 8.5 | – | –
Cc1nn2c(N3CCN(C4CCCC4)CC3)cc(C(C)(C)C)nc2c1-c1ccccc1 | 3.9 | – | –
O=C1OC(C(=O)Nc2ccccc2)Cc2ccccc21 (centres undefined) | -16.6 | 6.51 µM [falling, single point] | 6.51 µM [falling, single point]
CN(CC(=O)Nc1ccccc1Cl)C(=O)c1ccccc1SCC(=O)N1CCCC1 | -40 | 32.6 µM [falling, single point] | 0.164 µM [falling, full curve, poor fit]
COc1cc(C(=O)NCc2nnc(SCC(=O)N3CCCCCC3)o2)cc(OC)c1OC | 32.9 | 29.1 µM [rising, single point] | –
COc1ccc([N+](=O)[O-])cc1NC(=O)c1ccco1 | 13.7 | 1.64 µM [rising, full curve, poor fit] | –
CN(Cc1cccc(Cl)c1)C(=O)C1CCN(C(=O)Nc2ccccc2)CC1 | – | 6.51 µM [falling, single point] | 8.2 µM [falling, partial curve, poor fit]
O=S(=O)(/N=C(/c1ccccc1)N1CCOCC1)c1ccc(Br)cc1 | 6.74 | – | 6.51 µM [falling, single point]
CC(C)(C)NC(=O)NC(=O)COC(=O)Cc1coc2ccc3ccccc3c12 | -14.1 | – | 32.6 µM [falling, single point]
CC12COC3(P(=O)(c4ccccc4)c4ccccc4)CC1CCC23CP(=O)(c1ccccc1)c1ccccc1 (centres undefined) | 12.6 | – | 29.1 µM [falling, single point]
CC(=O)c1cccc(NC(=O)C(OC(=O)c2cccs2)c2ccccc2)c1 (centres undefined) | -13 | – | 0.13 µM [falling, full curve, poor fit]
Cc1cc2nc(/C=C/c3cccnc3)[nH]c2cc1C | 8.07 | – | 29.1 µM [rising, single point]
O=C(c1cc(COc2ccc3ncccc3c2)on1)N1CCCCCC1 | -42.5 | 23.1 µM [falling, single point] | 10.3 µM [falling, partial curve]
O=C(c1ccc2ccccc2n1)N1CCN(c2ccccn2)CC1 | 21.7 | – | –
O=S(=O)(NCc1ccccc1)c1ccc(S(=O)(=O)N(Cc2ccccn2)C2CCCC2)cc1 | -25.3 | – | 29.1 µM [falling, single point]
